Reference: PubChem BioAssay AID540303 (National Center for Advancing Translational Sciences (NCATS), 2011)
Screen size: about 330,000 compounds; about 1,000 (0.3%) were called active. This list was built around the results that the source calls inconclusive (neither active nor inactive); the mix of calls is not that of the screen. The call rests on the fitted dose curve; in most records, active means well fitted inhibition curve with a large enough effect; inconclusive means small, poorly fitted or top-dose-only effect; inactive means no such curve, though single readings can be large or run the other way; tested in mouse RAW 264.7 cells. Potencies beside an inconclusive call are fits to weak or partial responses and may not hold up.

experiment: qHTS for Inhibitors of Cell Surface uPA Generation; details: cell surface uPA generation assay; series mostly up to 38.3 µM; further: nearly all actives have a fitted effect of over 55% in size
Outline: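 Using RAW 264.7 macrophages, the screen measures whether compounds keep cellular ATP up by preventing uPA-driven LF translocation. Treatment lasted 24 h at 37 C, with a final top concentration of 38.3 uM, and luminescence was the readout.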
Potency means the concentration at half of the fitted maximal effect.

| SMILES | Potency |
| --- | --- |
| COc1ccc(-c2noc(-c3ccoc3C)n2)cc1OC | inconclusive: 4.47 µM [inhibitor, partial curve, poor fit] |
| COc1cc(C(=O)NCC(c2ccco2)N2CCCC2)ccc1OCc1ccc(Cl)cc1Cl (stereo not given) | inconclusive: 2.82 µM [inhibitor, partial curve, poor fit] |
| CCOC(=O)c1sc(C)c2c1NC(C)(c1cccs1)NC2=O (stereo not given) | inconclusive: 12.6 µM [inhibitor, single point] |
| OC[C@@H]1[C@@H](c2ccc(Cl)cc2)C(c2cccc(Cl)c2)=NN1c1ccccc1 | inconclusive: 22.4 µM [inhibitor, single point] |
| CCCC(=O)Nc1cc(=O)n(C)c(=O)n1C | inconclusive: 31.6 µM [inhibitor, partial curve, poor fit] |
| CC(C)OC(=O)Cc1nc2sc(-c3ccccc3)cc2c(=O)[nH]1 | inconclusive: 7.94 µM [inhibitor, partial curve, poor fit] |
| CCc1nnc(NC(=O)CSc2nnc(-c3cc4ccccc4cc3O)n2CC)s1 | inactive |
| O=[N+]([O-])c1ccc(N/N=C2\CC3CC=CC23)cc1 (stereo not given) | inconclusive: 6.31 µM [inhibitor, partial curve, poor fit] |
| C=CCn1c(SCC(=O)NCc2ccco2)nnc1-c1ccc2ccccc2n1 | inactive |
| COc1ccc2[nH]c(CN3CCN(CC(C)C)C(CCO)C3)c(C)c2c1 (stereo not given) | inactive |
| COC(=O)CNC(=O)C1CCN(C(=O)OCc2ccccc2)CC1 | inactive |
| COc1cccc(/C=N/NC(=O)c2cc3c(OC)ccc(OC)c3[nH]2)c1O | active: 6.31 µM |
| Cc1sc2nc(CN3CCCC3)nc(N3CCN(S(=O)(=O)c4ccccc4)CC3)c2c1C | inconclusive: 0.355 µM [inhibitor, full curve] |
| CC(NCC(=O)NCC(=O)Nc1ccc(F)cc1)c1cccc(C(F)(F)F)c1 (stereo not given) | inconclusive: 2.82 µM [inhibitor, partial curve, poor fit] |
| Cc1ccccc1C1CC(=O)NC2=C1C(=O)CCC2 (stereo not given) | inactive |
| Cc1cccc(NC(=O)c2ccc3c(Cl)c4c(nc3c2)CCCC4)n1 | inconclusive: 1.12 µM [inhibitor, single point] |
| O=C(Nc1cccnc1)c1cc(-c2cccs2)on1 | inactive |
| O=[N+]([O-])c1ccc2c3n([n+]([O-])c2c1)CCN=C3c1ccc(Cl)cc1 | inconclusive: 4.47 µM [inhibitor, partial curve, poor fit] |
| O=C(Nc1ccsc1C(=O)O)c1ccc(Cl)cc1 | inactive |
| O=C(Nc1nccs1)c1cn2ccccc2n1 | inconclusive: 10 µM [inhibitor, partial curve, poor fit] |
| C=CCNC(=S)NNC(=O)C(CCCC)CC(C)(C)O (stereo not given) | inactive |
| CCOc1ccccc1OCCNC1CCCC1 | inconclusive: 28.2 µM [inhibitor, single point] |
| CCCCCCCNC(=O)C1(CC2CC(c3cccc(Br)c3)=NO2)CCNCC1 (stereo not given) | inconclusive: 14.1 µM [inhibitor, single point] |
| O=[N+]([O-])c1ccc(/C=C/c2ccc3cccc([N+](=O)[O-])c3n2)cc1 | inactive |

| SMILES | Potency |
| --- | --- |
| CCc1ccc(OCC(=O)NC(=S)Nc2cccc(CO)c2)c(Br)c1 | inactive |
| Cc1ccc(S(=O)(=O)Cc2ccc(C(=O)N3CCN(c4cccc(C)c4C)CC3)o2)cc1 | active: 0.891 µM |
| CCCNC(=O)C1CC(=O)N(c2ccc(OCc3ccc(F)cc3)cc2)C1 (stereo not given) | inconclusive: 0.316 µM [inhibitor, full curve, poor fit] |
| Cc1sc2ncnc(SCC(=O)N3CCOCC3)c2c1C | inconclusive: 14.1 µM [inhibitor, single point] |
| CN(C)c1ccc(/C=C2\CCC/C(=C\c3ccccc3)C2=O)cc1 | inconclusive: 7.08 µM [inhibitor, partial curve] |
| Cc1csc(NC(=O)c2cc3c(s2)CCCC3)n1 | inconclusive: 2.82 µM [inhibitor, partial curve, poor fit] |
| COc1n[nH]c(C(=O)Nc2cc(F)ccc2C)c1[N+](=O)[O-] | inactive |
| Cc1ccc(C(=O)Nc2ccc(N3CCCCC3)cc2)cc1 | inactive |
| O=C(Nc1ccncc1)c1ccc(-c2ccccc2)cc1 | inconclusive: 14.1 µM [inhibitor, partial curve, poor fit] |
| Cn1c(/C=C/c2ccc(Cl)cc2)nc2ccccc2c1=O | inactive |
| Cc1onc(-c2ccccc2Cl)c1C(=O)O/N=C(\N)c1ccccc1 | inconclusive: 8.91 µM [inhibitor, partial curve, poor fit] |
| CCOC(=O)C1=C(O)/C(=C/c2cn(CC(=O)N3CCCC3)c3ccccc23)SC1=Nc1ccccc1 | inactive |
| COc1cc(OC)c(C(=O)OCC(=O)NC23CC4CC(CC(C4)C2)C3)cc1OC | inactive |
| CSCc1c(C(=O)NCCc2ccccn2)oc2ccccc12 | inactive |
| Cc1cc2nc(/C=C/c3cccnc3)[nH]c2cc1C | inconclusive: 0.282 µM [inhibitor, full curve, poor fit] |
| O=C(c1cc(COc2ccc3ncccc3c2)on1)N1CCCCCC1 | inactive |
| CC(C)CC(COCc1ccc(C(F)(F)F)cc1)N1CCN(C(=O)c2ccc(C(F)(F)F)cc2)CCC1=O (stereo not given) | inconclusive: 12.6 µM [inhibitor, single point] |
| CC(=O)Nc1ccc(N=C(C2=C(O)c3ccccc3C2=O)c2ccccc2)cc1 | inconclusive: 10 µM [inhibitor, partial curve, poor fit] |
| CCN1CCN(Cc2ccc(NC(=O)c3ccc(C)c(NC(=O)c4cccc(-c5cn[nH]c(=O)c5)c4)c3)cc2C(F)(F)F)CC1 | inconclusive: 12.6 µM [inhibitor, single point] |
| CCOc1cc(S(=O)(=O)NCc2ccc(OC)cc2)c(OCC)cc1-n1cnnn1 | inconclusive: 2.51 µM [inhibitor, full curve, poor fit] |
| O=C(NCc1ccco1)C1CC(c2ccc(C(F)(F)F)cc2)=NO1 (stereo not given) | inconclusive: 3.98 µM [inhibitor, partial curve] |
| O=[N+]([O-])c1ccc(/C=N/NC(=S)Nc2ccccc2C(F)(F)F)o1 | inactive |
| CC(=O)N1CCc2cc(C(=O)CN3CCN(C(=O)c4ccco4)CC3)ccc21 | inactive |
| COc1ccc2c(c1)CC/C(=C/c1ccccn1)C2=O | inconclusive: 3.16 µM [inhibitor, partial curve] |

| SMILES | Potency |
| --- | --- |
| O=C(CSc1ncnc2[nH]ncc12)Nc1nc(-c2ccc(F)c(F)c2)cs1 | inconclusive: 12.6 µM [inhibitor, partial curve, poor fit] |
| Cc1c(NC(=S)NC(=O)c2sc3ccccc3c2Cl)cccc1C(=O)O | inconclusive: 2.51 µM [inhibitor, partial curve] |
| N=C(N)SCC1=CCS(=O)(=O)C1 | inconclusive: 7.94 µM [inhibitor, single point] |
| COc1ccccc1N(CC(=O)N1CCCC1)S(=O)(=O)c1cc([N+](=O)[O-])ccc1Cl | inactive |
| CCC(CO)Oc1cc(NCc2ccccc2C(F)(F)F)c2ncn(C(C)C)c2c1 (stereo not given) | inconclusive: 7.08 µM [inhibitor, partial curve, poor fit] |
| N#Cc1c(C#N)c(-c2ccccc2)n(-c2ccccc2)c1N | inactive |
| CCN(CC)S(=O)(=O)c1ccc2oc(Nc3ccc4c(c3)OCCO4)nc2c1 | inactive |
| CCOC(=O)N1C2c3ccccc3C(c3ccccc32)N1C(=O)OCC | inactive |
| COc1cccc(NC(=O)Nc2nc(SC(C)(C)C)ns2)c1 | inconclusive: 12.6 µM [inhibitor, single point] |
| O=C(N/N=C/c1ccc2c(c1)OCO2)c1ccc(NC(=O)c2ccccc2Cl)cc1 | inactive |
| CC(C)c1ccc(CNc2ccc3c(c2)ncn3C)cc1 | inconclusive: 8.91 µM [inhibitor, single point] |
| CCCN(CC(=O)Nc1ccccc1OC)C(=O)CSc1ccc(Br)cc1C | inconclusive: 6.31 µM [inhibitor, partial curve, poor fit] |
| COC(=O)c1cc(=O)n(CCc2ccccc2)c(=Nc2ccc(F)cc2)s1 | inconclusive: 6.31 µM [inhibitor, single point] |
| COc1ccc(S(=O)Cc2ccc(C(=O)N3CCN(c4cccc(C)c4C)CC3)o2)cc1 (stereo not given) | inconclusive: 1 µM [inhibitor, partial curve, poor fit] |
| O=C(NC12CC3CC(CC(C3)C1)C2)c1ccc([N+](=O)[O-])cc1 | inconclusive: 8.91 µM [inhibitor, single point] |
| Cc1ccccc1NC(=O)COC(=O)c1ccc(S(C)(=O)=O)c([N+](=O)[O-])c1 | inconclusive: 7.94 µM [inhibitor, partial curve, poor fit] |
| O=C(NCc1ccc(F)cc1)C1CCN(S(=O)(=O)c2ccc(Br)s2)CC1 | inactive |
| COc1cccc(CSc2nc3ccncc3[nH]2)c1 | inconclusive: 4.47 µM [inhibitor, partial curve, poor fit] |
| CN1CCC(NC(=O)c2cccc(Oc3ccccc3)c2)CC1 | inconclusive: 11.2 µM [inhibitor, partial curve, poor fit] |
| COc1ccc(Nc2nnc(SCC(=O)NC(=O)Nc3ccc4c(c3)OCCO4)s2)cc1 | inconclusive: 14.1 µM [inhibitor, single point] |
| Cc1nc(NC(=O)c2ccc(OCC(C)C)cc2)sc1Cc1ccc2c(c1)OCO2 | inconclusive: 11.2 µM [inhibitor, partial curve, poor fit] |
| O=C(CN1CC(=O)Oc2ccccc21)OCC(=O)c1ccccc1 | inconclusive: 3.55 µM [inhibitor, partial curve] |
